# Reference: article PMC10070696
# No constants are given. Whether binding was seen depends on the method and setting. For some of these results: Binding seen in cells or lysates may run through a third protein. Some results given as binding are weak or reduced against the parent protein; the word gives no strength. Sequences can lack the tags named with a protein.
# T1: BD-ICE1-3 (C-terminal region of ICE1, amino acids 358-494, ZIP domain, fused to the GAL4 binding domain) (Arabidopsis thaliana) (UniProt Q9LSE2)
# T1 sequence: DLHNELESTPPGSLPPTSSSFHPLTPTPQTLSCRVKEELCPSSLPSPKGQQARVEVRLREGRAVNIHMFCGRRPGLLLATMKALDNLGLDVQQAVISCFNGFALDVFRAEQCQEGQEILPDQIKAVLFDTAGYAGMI
# T2: BD-ICE1-2 (C-terminal region of ICE1, amino acids 298-494, bHLH and ZIP domains, fused to the GAL4 binding domain) (Arabidopsis thaliana) (UniProt Q9LSE2)
# T2 sequence: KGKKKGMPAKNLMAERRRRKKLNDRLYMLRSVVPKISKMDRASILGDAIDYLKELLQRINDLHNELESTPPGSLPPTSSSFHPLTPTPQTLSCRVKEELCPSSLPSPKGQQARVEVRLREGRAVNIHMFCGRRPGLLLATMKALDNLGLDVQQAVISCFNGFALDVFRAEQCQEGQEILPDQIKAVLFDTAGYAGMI
# T3: cCFP-ICE1 (Arabidopsis thaliana) (UniProt Q9LSE2)
# T3 sequence: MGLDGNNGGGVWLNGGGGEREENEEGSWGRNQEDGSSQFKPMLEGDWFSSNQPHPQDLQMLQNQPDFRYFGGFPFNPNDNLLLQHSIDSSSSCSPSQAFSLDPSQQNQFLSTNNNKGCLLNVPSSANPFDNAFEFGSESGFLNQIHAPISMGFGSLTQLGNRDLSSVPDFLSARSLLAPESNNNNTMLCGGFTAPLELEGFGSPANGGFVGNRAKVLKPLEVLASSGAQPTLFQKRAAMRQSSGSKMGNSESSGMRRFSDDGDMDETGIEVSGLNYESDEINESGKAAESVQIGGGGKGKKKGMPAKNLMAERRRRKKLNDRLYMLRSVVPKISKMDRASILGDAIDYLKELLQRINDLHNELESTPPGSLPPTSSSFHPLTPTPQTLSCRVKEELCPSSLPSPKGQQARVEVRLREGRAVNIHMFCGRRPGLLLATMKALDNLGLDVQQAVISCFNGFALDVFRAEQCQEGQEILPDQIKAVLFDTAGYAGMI
# T4: cLUC-ICE1 (Arabidopsis thaliana) (UniProt Q9LSE2)
# T4 sequence: T3 sequence
# B1: AD-LFR (Leaf and Flower Related fused to the GAL4 activation domain) (protein, UniProt Q9LS90 1-460)
# chain: MQKRELGKSGGNSGGSSGPPAKRGRPFGSTSANSAAAAAAAAAADAMSPSALLGPSLLVHNSFVEQNNRRIVLALQSGLKSEVTWALNTLTLLSFKEKEDIRRDVMPLAKIAGLLDALLLIIDDWRDIALPKDLTRGTRVRTLGTNASVTGFGNEYDALASIQPPGSGIGSSAAEALGKKSTGKHQSSQWWMEEDGLFNLDDEGRSEKQMCAIAASNVIRNFSFMPDNEVVMAQHRHCLETVFQCIHDHMTEDEELVTNSLETIVNLAHLMDLRIFSSLKQSYININEKKAVQAVVGILNSSVKAWNCAAAELLGRLIINPDNEPFISPLIPQIHKRLIDLLSIQAVDAQAAAVGALYNLVEVNMDCRLKLASERWAVDRLLKVIKTPHPVPEVCRKAAMILENLVSEPQNRGLLLAYENAFAELLFQEGKYSDSFARILYELTARSNSRVASARGIWGM
# B2: nYFP-LFR (protein, UniProt Q9LS90 1-460)
# chain: B1 chain
# B3: LFR-nLUC (protein, UniProt Q9LS90 1-460)
# chain: B1 chain
# Columns and labels:
# [1] = target: T1, BD-ICE1-3 (C-terminal region of ICE1, amino acids 358-494, ZIP domain, fused to the GAL4 binding domain) (Arabidopsis thaliana); test: two-hybrid; yeast GAL4 system (Clontech), AD fusion in pGADT7 and BD fusion in pGBKT7 co-transformed into AH109, 30°C for 3 days, growth on SD/-L-W-H-A
# [2] = target: T2, BD-ICE1-2 (C-terminal region of ICE1, amino acids 298-494, bHLH and ZIP domains, fused to the GAL4 binding domain) (Arabidopsis thaliana); test: as above
# [3] = target: T3, cCFP-ICE1 (Arabidopsis thaliana); test: split reporter; BiFC: nYFP and cCFP fusions co-expressed for about 48 h in tobacco (Nicotiana benthamiana) leaf epidermal cells, GFP signal by confocal microscopy
# [4] = target: T4, cLUC-ICE1 (Arabidopsis thaliana); test: split reporter; firefly luciferase complementation imaging (LCI): nLUC and cLUC fusions co-expressed in tobacco leaves at 22°C for about 48 h, 1 mM D-luciferin sprayed, low-light imaging
binder,measurement,setting,value
B1,binding,[1],binds
same,binding,[2],binds
B2,binding,[3],binds
B3,binding,[4],binds
